Test results as given in PubChem BioAssay AID2685 (National Center for Advancing Translational Sciences (NCATS), 2010).
Hit rate of the full screen: of about 320,000 compounds, about 2,100 (0.66%) were called active. Inconclusive means that the source gave no clear call. Such entries were picked first, then a sample of the others. Calls come from the whole dose curve; as a rule, active = well fitted inhibition curve with a large enough effect in the signal ratio, with a control signal flat (not every such curve was filed as active); inconclusive = small, poorly fitted or top-dose-only effect, or effect the other way, or a change in a side signal; inactive = flat fitted curve, though single readings scatter; the % refers to the signal ratio. Where the call is inconclusive, the potency comes from a doubtful curve fit.

test: qHTS Assay for Lipid Storage Modulators in Drosophila S3 Cells; conditions: BODIPY lipid droplet fluorescence, 18-24 h, cells fed with added oleic acid; lipid storage change, negative = inhibition: at 46.1 µM (top of the series) unless noted
Procedure, shortened: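 Drosophila S3 cells loaded with oleic acid (400 uM, as added) and compounds at several concentrations; lipid droplets imaged by 488-nm laser-scanning cytometry, 500–530 nm intensity and object ratio to cell channel. Percent activity normalized to 20 uM Triacsin C.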
% is set by controls: 0 for no effect and ±100 for the full control effect; potency is the fitted concentration of half-maximal effect.

SMILES | lipid storage change, negative = inhibition | Potency
CCCCn1c(C(C)NC(=O)COC)nc2ccccc21 (stereo unspecified) | inconclusive: -5.37% | –
CCn1c(SCc2nc(CC(=O)Nc3ccccc3OC)no2)nnc1-c1cccs1 | inconclusive: -1.01% | –
O=C(O)CCCCCN1C(=O)CCC1=O | inconclusive: -54.6% | –
O=S(=O)(Nc1cccc(-c2nc3cccnc3s2)c1)c1ccc2c(c1)CCCC2 | inconclusive: -13.8% | –
C[n+]1cccc(O)c1SCc1ccccc1 | – | inconclusive: 29.1 µM [falling, single point]
Cn1c(=O)c2c(O)c([N+](=O)[O-])c(=O)n(C)c2n(C)c1=O | – | inconclusive: 0.164 µM [falling, full curve, poor fit]
CCCS(=O)(=O)N1CCCC(C(=O)NCCc2ccc(Cl)cc2)C1 (stereo unspecified) | inconclusive: 79.4% | –
Cc1ccc2c(c1)N(CC(=O)N1CCN(c3nc4ccccc4s3)CC1)C(=O)C(C)O2 (stereo unspecified) | – | inconclusive: 2.31 µM [activator, partial curve]
COc1ccc(NC(=S)Nc2ccccc2Cl)cn1 | inconclusive: -20.1% | –
C=CCNC(=O)c1ccc(CN(c2ccc(OCC)cc2)S(=O)(=O)c2ccc(C)cc2)cc1 | – | inconclusive: 29.1 µM [falling, single point]
Cc1ccc(NC(=O)c2ccccc2Br)cc1S(=O)(=O)N(C)C | inconclusive: -2.4% | –
CCc1ccc(NC(=O)CSc2nnc(Cc3cccn3C)n2-c2ccc(OC)cc2)cc1 | inconclusive: 43.9% | –
C/C(=N\NC(=O)c1ccc(CN2CCOCC2)cc1)c1ccc(NC(=O)c2ccccc2)cc1 | inconclusive: 10.8% | –
O=C(CCCc1c[nH]c2ccccc12)NCCc1c[nH]c2ccccc12 | – | inconclusive: 32.6 µM [activator, single point]
O=C(NCc1cccs1)C(=O)NCC1OCCCN1S(=O)(=O)c1ccc(F)cc1 (stereo unspecified) | inconclusive: -43.1% | –
COCCCNC(=O)Cn1c(=O)n(CC(=O)NCCc2ccc(OC)c(OC)c2)c(=O)c2sccc21 | inconclusive: 8.08% | –
CCOc1ccccc1NC(=O)COC(=O)c1cc(C(=O)OC)cc([N+](=O)[O-])c1 | inconclusive: 9.46% | –
COCCCNC(=O)c1cc(C(=O)c2ccccc2Br)c[nH]1 | inconclusive: -9.99% | –
CC(C)c1ccc(NC(=S)N2CCN(Cc3ccccc3)CC2)cc1 | inconclusive: 17.6% | –
CC(C)[C@H](NC(=O)c1ccccc1)C(=O)OCC(=O)c1ccccc1F | – | inconclusive: 0.0052 µM [activator, full curve, poor fit]
Cc1ccc(N/C(SCc2ccccc2C)=C(/C#N)C(=O)NCc2ccco2)cc1C | – | inconclusive: 5.17 µM [activator, partial curve]
O=C(OCC1OC2C(Oc3nc(=O)ccn32)C1O)c1ccccc1 (stereo unspecified) | – | inconclusive: 6.51 µM [falling, single point]
O=C(NC(NC(=S)Nc1c(Cl)cccc1Cl)C(Cl)(Cl)Cl)c1cccc([N+](=O)[O-])c1 (stereo unspecified) | – | active: 3.66 µM
COc1ccc(CSc2nnc(CNS(C)(=O)=O)o2)cc1 | inactive | –
CCOc1ccc(NC(=O)NNC(=O)C(C)Oc2ccccc2OC)cc1 (stereo unspecified) | – | inconclusive: 10.3 µM [activator, partial curve, poor fit]
Cc1cnc(C(=O)OCC(=O)NC2CCCCC2)cn1 | inconclusive: 4.06% | –

SMILES | lipid storage change, negative = inhibition | Potency
O=C(NCc1ccccn1)c1cccc(NS(=O)(=O)c2cccc(F)c2)c1 | inconclusive: 24.3% | –
Nc1ncc(-n2cncn2)c(-c2ccc(Cl)cc2)n1 | inconclusive: -35.5% | –
Cc1onc(-c2ccccc2Cl)c1C(=O)NCc1ccc(N2CCCC2=O)cc1 | inactive | –
Cc1ccccc1S(=O)(=O)Cc1ccc(C(=O)NC2CCCCC2)o1 | inconclusive: -54.8% | –
Cc1ccc(SCc2nc(-c3ccccc3)no2)cc1 | – | inconclusive: 13 µM [falling, partial curve, poor fit]
CCOc1ccc(OCC)c(S(=O)(=O)N2CCCCC2C)c1 (stereo unspecified) | inconclusive: -13.3% | –
Cc1cc(S(=O)(=O)Nc2ccc3cn[nH]c3c2)c(C)cc1Cl | – | inconclusive: 0.164 µM [activator, full curve, poor fit]
CN1CCN(c2nc(N3CCN(c4ccccc4)CC3)ncc2F)CC1 | – | inconclusive: 29.1 µM [activator, single point]
CNC(=O)c1ccccc1-c1cn(C)c2ccccc2c1=O | inconclusive: 14.7% | –
O=C(O)COc1c(-c2ccccc2)oc2ccccc2c1=O | – | active: 23.1 µM
Cc1cc(C(=O)N/N=C/c2ccco2)c2ccccc2n1 | inconclusive: -10.9% | –
Cc1c(O)ccc2c3c(c(=O)oc12)CCC(C)C3 (stereo unspecified) | inconclusive: -18.5% | –
N/C(=N\OC(=O)c1cccc(Br)c1)c1ccncc1 | inconclusive: -0.977% | –
Cc1cccc(N(CC(=O)NC2CCCC2)C(=O)c2cc3cc4cccc(C)c4nc3s2)c1C | inconclusive: -82.5% | –
Nc1ncccc1C(=O)OCC(=O)NC1CCCCCC1 | inconclusive: 18.2% | –
C/C(CC(=O)Nc1ccc2c(c1)OCCO2)=N\NC(=O)c1ccccc1Cl | – | inconclusive: 0.58 µM [activator, single point]
COc1ccc(-c2cc(C(=O)Nc3cccnc3)c3ccccc3n2)cc1OC | inconclusive: -64.7% | –
CC1CC(C)CN(C(=O)Cn2c(SCC(=O)N3CCc4ccccc4C3)nc3ccccc32)C1 (stereo unspecified) | inconclusive: 8.07% | –
Cc1ccccc1NC(=O)c1cccc(N2C(=O)C3C4CC(C(Br)C4Br)C3C2=O)c1 (stereo unspecified) | – | inconclusive: 29.1 µM [falling, single point]
CCOC(=O)[C@@H]1[C@H]2COc3cc(OC)ccc3[C@@H]2N2C(=O)N(c3ccc(F)cc3)C(=O)[C@]12C | inconclusive: -5.63% | –
CCCN[C@@H]1C(=O)N2C(C(=O)OCCC)=C(C)CS[C@H]12 | inconclusive: 37.1% | –
O=C(Nc1ccc(Cl)cc1)N1CCN(c2ncccn2)CC1 | – | inconclusive: 29.1 µM [falling, single point]
O=C(NCCCN1CCCC1=O)c1ccc(CNS(=O)(=O)c2ccc(F)cc2)cc1 | inconclusive: 23% | –
COC(=O)c1ccccc1NC(=O)CCNC(=O)Cn1cnc2ccccc2c1=O | inactive | –
COc1ccccc1NC(=O)CCCN1C(=O)C2CC=CCC2C1=O (stereo unspecified) | – | inconclusive: 4.61 µM [activator, single point]
N/C(=N\OC(=O)c1ccncc1)c1cccc([N+](=O)[O-])c1 | – | inconclusive: 4.11 µM [activator, single point]

SMILES | lipid storage change, negative = inhibition | Potency
COc1ccc(/C=N/S(=O)(=O)c2ccccc2)cc1OC | inconclusive: -12.3% | –
O=c1[nH]c2ccsc2c(=O)n1-c1ccc(F)cc1 | inconclusive: 9.72% | –
COc1cc(SC)ccc1C(=O)NCCOc1ccccc1Cl | inconclusive: -5.46% | –
CC(=O)N1CCN(C(=O)c2cc(=O)c3ccccc3o2)CC1 | inconclusive: -16.2% | –
COc1ccc(OC)c(/C=N/N(C)c2ccccc2)c1 | – | inconclusive: 1.64 µM [activator, partial curve, poor fit]
Cc1nc(C)c(-c2csc(Nc3cccc(O)c3)n2)s1 | inactive | –
COc1ccc(CNC(=O)Cc2ccc(NC(=O)C3=C(C)OCCS3)cc2)cc1 | – | inconclusive: 0.58 µM [activator, single point]
CC1=C(C(N)=O)C(c2ccccn2)n2nc(SCc3ccccc3Cl)nc2N1 (stereo unspecified) | inconclusive: 26.6% | –
COc1ccc(CCNC(=O)Cc2cc(OC)c(OC)cc2[N+](=O)[O-])cc1OC | – | inconclusive: 29.1 µM [activator, single point]
Cc1ccc(-n2cccc2/C=C2\C(=N)N3N=C(C(C)C)SC3=NC2=O)cc1 | inconclusive: -17% | –
COc1cc(/C=C/C(=O)N2CCOCC2)ccc1OCc1ccccc1 | inconclusive: 14.5% | –
COc1cccc(C(=O)NC(=S)Nc2ccc(N3CCCC3)cc2)c1 | inconclusive: -12.3% | –
CCn1cc(CNC(=O)C2CCC(=O)N(C3CCCCCC3)C2)cn1 (stereo unspecified) | – | inconclusive: 29.1 µM [activator, partial curve, poor fit]
CC12CCC(C(=O)NCc3ccccc3Cl)(CC1=O)C2(C)C (stereo unspecified) | inconclusive: 109% | –
CCc1ccc(NC(=O)Cn2c(SC)nc3ccccc32)cc1 | inconclusive: -16.8% | –
Cc1ccc(Cl)cc1N1CCN(C(=O)c2cccc3c(=O)c(C)c(-c4ccccc4)oc23)CC1 | – | inconclusive: 2.91 µM [falling, partial curve]
CC12c3ccccc3C(c3ccccc31)C1C(=O)N(c3ccncc3)C(=O)C12 (stereo unspecified) | inconclusive: -17.5% | –
Cc1nc(Nc2ccccc2Cl)sc1C(=O)Nc1ccccc1 | inconclusive: -17.9% | –
Cc1c(/C=N/NC(=O)C(NC(=O)c2ccc3c(c2)OCO3)C(C)C)c2ccccc2n1C (stereo unspecified) | – | inconclusive: 0.0046 µM [activator, full curve, poor fit]
O=C1Cc2ccccc2C(=O)N1c1cccc(Cl)c1 | inactive | –
Cc1c(C(=O)O)[nH]c2c1C(=O)CC(c1ccccc1)C2 (stereo unspecified) | inconclusive: -150% | –
Cc1nc(-c2ccccc2)sc1C(=O)CSc1ccccc1 | – | inconclusive: 0.411 µM [rising, partial curve]
C/C(=N/NC(=O)CC(=O)N/N=C(\C)c1ccc([N+](=O)[O-])cc1)c1ccc([N+](=O)[O-])cc1 | inconclusive: -2.87% | –
COc1ccc(C2C(O)C(c3c[nH]c4ccccc34)=NN2C(=O)CCl)cc1 (stereo unspecified) | – | inconclusive: 0.206 µM [activator, single point]

Pulled by structure from above:
SMILES | lipid storage change, negative = inhibition | Potency
O=C1Cc2ccccc2C(=O)N1c1cccc(Cl)c1 | inactive | –
COc1cccc(C(=O)NC(=S)Nc2ccc(N3CCCC3)cc2)c1 | inconclusive: -12.3% | –
CCc1ccc(NC(=O)Cn2c(SC)nc3ccccc32)cc1 | inconclusive: -16.8% | –
O=c1[nH]c2ccsc2c(=O)n1-c1ccc(F)cc1 | inconclusive: 9.72% | –
CC(=O)N1CCN(C(=O)c2cc(=O)c3ccccc3o2)CC1 | inconclusive: -16.2% | –

Two of these compounds in another layout:
COc1ccc(CCNC(=O)Cc2cc(OC)c(OC)cc2[N+](=O)[O-])cc1OC
  Potency: inconclusive: 29.1 µM [activator, single point]
Cc1ccc(-n2cccc2/C=C2\C(=N)N3N=C(C(C)C)SC3=NC2=O)cc1
  lipid storage change, negative = inhibition: inconclusive: -17%
